Assay: Profiling of ganglioside GM1 in human plasma, CSF and urine

Substance: ganglioside GM1
- CSF level in GM1 gangliosidosis patients versus controls (CSF, any ganglioside GM1 species): no significant differences
- Elevation in plasma of GM1 gangliosidosis patients versus controls (plasma, type II GM1 gangliosidosis): less than 2 fold
- Detection in urine (urine): undetectable
